Test results: the supplement of paper PMC10849652
The other results are listed elsewhere or left out.

By UniProt entry, the sequences of proteins in these tests, tags left out. Where a name states a change or a piece, a line headed by the entry shows the natural chain unless it says otherwise.
UniProt Q9UHA4, whole entry, looked up: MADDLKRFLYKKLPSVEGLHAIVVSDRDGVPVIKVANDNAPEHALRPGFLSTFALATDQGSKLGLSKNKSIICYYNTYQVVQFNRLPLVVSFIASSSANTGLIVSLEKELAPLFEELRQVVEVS
UniProt Q8N6L1: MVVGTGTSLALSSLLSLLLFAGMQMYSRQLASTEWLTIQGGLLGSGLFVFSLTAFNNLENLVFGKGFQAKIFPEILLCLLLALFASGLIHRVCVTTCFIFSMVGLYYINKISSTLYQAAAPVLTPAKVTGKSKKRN
UniProt Q8N371: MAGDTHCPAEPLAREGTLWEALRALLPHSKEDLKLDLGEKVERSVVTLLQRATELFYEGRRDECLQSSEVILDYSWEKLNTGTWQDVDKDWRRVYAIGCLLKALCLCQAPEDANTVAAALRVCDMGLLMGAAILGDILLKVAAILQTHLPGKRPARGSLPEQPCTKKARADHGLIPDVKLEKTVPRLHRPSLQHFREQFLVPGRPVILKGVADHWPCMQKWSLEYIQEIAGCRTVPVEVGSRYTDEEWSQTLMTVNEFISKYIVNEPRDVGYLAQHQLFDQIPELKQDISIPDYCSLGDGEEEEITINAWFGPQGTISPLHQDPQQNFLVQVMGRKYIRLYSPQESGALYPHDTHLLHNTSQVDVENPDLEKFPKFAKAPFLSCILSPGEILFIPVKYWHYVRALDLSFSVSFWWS
UniProt Q6TDP4, whole entry, looked up: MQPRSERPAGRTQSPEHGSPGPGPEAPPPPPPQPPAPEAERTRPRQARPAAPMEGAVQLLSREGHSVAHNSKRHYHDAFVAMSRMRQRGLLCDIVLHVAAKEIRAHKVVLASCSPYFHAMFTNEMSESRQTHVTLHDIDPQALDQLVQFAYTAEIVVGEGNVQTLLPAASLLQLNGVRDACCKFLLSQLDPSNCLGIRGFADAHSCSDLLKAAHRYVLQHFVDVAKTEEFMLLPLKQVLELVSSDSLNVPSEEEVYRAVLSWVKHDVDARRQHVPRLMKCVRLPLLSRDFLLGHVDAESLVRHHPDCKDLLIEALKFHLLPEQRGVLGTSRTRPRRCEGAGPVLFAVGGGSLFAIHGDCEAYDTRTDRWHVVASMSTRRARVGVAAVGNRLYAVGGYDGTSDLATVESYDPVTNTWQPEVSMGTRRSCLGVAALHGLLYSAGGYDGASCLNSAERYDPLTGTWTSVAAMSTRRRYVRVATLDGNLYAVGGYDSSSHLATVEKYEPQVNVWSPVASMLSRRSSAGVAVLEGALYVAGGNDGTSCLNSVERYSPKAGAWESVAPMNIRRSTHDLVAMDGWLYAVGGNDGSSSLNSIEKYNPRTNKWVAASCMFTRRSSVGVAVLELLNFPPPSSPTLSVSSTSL
UniProt Q9Y2M5: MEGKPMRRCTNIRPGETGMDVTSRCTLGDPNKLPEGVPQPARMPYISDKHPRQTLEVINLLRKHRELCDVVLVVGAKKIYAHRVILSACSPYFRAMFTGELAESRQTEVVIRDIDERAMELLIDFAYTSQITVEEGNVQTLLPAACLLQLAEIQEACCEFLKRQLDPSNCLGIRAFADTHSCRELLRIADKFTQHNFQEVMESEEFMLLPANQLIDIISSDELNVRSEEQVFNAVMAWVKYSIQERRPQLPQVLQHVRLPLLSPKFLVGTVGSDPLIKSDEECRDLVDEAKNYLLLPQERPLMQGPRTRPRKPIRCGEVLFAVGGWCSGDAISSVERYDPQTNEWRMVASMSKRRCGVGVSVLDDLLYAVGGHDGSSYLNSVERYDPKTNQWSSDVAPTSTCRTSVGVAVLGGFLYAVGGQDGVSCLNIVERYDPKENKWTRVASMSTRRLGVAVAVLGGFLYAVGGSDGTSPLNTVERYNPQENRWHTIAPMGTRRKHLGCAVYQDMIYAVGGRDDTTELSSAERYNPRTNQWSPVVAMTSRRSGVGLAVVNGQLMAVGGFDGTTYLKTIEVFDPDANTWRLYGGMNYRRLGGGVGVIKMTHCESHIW
UniProt P24043: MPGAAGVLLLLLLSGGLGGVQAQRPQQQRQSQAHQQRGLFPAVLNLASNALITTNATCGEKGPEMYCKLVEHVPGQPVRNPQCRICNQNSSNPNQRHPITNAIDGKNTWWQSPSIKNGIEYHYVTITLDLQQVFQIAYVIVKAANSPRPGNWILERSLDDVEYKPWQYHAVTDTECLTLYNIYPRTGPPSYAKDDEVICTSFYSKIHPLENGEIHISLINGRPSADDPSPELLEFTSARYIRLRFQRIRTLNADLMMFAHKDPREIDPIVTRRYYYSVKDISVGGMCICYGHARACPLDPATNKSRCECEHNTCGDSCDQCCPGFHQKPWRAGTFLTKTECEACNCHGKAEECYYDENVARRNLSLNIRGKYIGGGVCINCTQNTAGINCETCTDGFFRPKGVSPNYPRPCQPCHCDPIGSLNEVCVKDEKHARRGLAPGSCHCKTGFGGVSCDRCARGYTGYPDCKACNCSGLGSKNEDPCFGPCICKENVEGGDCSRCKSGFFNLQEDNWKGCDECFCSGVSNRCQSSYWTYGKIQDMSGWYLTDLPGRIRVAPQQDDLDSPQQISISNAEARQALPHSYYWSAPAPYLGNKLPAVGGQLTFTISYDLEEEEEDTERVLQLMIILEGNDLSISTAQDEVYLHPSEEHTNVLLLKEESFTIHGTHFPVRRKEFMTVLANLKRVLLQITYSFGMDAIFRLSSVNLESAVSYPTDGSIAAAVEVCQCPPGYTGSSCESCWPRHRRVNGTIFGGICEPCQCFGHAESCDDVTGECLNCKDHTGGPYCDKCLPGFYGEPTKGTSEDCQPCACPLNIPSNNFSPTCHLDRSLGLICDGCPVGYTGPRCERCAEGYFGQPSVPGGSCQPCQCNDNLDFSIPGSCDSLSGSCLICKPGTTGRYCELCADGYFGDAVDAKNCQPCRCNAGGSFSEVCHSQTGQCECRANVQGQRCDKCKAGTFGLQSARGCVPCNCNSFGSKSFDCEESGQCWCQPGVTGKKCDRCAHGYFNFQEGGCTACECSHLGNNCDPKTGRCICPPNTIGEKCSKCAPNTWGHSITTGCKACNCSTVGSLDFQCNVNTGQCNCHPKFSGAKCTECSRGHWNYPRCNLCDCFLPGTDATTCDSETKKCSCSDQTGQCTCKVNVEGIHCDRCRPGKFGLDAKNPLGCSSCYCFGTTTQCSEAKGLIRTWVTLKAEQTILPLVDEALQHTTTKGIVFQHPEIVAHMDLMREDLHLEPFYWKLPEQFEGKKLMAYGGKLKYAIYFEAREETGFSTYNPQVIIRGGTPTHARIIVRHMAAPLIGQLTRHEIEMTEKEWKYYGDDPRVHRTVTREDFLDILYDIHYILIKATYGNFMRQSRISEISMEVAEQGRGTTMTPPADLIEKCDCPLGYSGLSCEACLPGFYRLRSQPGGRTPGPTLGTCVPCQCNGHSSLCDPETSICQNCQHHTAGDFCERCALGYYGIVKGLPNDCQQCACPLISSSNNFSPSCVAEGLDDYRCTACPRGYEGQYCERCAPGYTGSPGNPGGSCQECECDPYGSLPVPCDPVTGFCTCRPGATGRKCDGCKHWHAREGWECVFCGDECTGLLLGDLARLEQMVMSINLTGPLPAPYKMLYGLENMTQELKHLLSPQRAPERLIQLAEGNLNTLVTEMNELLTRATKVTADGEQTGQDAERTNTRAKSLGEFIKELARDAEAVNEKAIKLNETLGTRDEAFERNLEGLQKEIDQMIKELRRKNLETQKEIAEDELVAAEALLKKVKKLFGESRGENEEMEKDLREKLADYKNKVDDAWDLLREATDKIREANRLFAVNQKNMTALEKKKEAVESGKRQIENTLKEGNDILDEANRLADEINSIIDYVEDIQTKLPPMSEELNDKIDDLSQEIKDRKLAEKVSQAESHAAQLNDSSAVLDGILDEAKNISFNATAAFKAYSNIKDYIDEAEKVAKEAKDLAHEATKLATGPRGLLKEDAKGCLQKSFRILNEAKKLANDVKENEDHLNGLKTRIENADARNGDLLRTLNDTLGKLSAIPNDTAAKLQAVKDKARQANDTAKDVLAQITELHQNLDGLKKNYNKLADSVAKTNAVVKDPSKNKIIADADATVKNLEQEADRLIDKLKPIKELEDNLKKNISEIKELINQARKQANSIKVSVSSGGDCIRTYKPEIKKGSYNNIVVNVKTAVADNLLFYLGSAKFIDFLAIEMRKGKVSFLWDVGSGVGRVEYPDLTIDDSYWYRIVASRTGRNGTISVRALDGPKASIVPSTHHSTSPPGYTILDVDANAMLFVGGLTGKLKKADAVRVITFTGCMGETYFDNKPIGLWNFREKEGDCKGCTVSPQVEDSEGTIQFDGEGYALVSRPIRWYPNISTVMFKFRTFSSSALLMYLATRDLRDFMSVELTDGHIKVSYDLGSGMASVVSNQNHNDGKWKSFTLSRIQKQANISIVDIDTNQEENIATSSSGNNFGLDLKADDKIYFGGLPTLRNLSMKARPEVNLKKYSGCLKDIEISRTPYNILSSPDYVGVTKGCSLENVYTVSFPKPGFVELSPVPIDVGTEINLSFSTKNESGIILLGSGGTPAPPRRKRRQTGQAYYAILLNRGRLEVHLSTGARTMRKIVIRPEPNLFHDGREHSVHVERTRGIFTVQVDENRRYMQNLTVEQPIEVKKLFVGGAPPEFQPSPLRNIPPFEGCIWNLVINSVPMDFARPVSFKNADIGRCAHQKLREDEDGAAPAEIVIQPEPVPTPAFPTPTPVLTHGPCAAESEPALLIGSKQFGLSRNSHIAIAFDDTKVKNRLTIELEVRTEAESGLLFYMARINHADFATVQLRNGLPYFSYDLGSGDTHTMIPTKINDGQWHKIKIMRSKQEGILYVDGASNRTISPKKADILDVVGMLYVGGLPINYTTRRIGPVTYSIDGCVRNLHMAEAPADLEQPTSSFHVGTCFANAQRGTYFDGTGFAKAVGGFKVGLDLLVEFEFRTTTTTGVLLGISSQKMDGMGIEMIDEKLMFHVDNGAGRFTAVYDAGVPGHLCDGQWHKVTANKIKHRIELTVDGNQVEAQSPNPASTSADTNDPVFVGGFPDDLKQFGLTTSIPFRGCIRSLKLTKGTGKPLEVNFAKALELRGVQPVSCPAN
UniProt Q9P2K6: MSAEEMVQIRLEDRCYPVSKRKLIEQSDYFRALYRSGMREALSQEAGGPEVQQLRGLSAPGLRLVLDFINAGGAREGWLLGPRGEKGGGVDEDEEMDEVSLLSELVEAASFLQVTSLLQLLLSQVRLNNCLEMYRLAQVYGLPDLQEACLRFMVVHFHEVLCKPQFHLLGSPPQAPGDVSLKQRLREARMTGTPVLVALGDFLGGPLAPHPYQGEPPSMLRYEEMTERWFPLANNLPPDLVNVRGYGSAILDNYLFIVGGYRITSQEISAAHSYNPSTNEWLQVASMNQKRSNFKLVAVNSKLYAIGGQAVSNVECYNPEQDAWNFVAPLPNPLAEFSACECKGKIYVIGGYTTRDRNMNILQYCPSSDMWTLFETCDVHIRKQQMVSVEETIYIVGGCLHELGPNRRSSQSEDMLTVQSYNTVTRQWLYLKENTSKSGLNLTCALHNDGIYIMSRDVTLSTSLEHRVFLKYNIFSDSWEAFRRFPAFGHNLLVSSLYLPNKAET
UniProt A5PL33: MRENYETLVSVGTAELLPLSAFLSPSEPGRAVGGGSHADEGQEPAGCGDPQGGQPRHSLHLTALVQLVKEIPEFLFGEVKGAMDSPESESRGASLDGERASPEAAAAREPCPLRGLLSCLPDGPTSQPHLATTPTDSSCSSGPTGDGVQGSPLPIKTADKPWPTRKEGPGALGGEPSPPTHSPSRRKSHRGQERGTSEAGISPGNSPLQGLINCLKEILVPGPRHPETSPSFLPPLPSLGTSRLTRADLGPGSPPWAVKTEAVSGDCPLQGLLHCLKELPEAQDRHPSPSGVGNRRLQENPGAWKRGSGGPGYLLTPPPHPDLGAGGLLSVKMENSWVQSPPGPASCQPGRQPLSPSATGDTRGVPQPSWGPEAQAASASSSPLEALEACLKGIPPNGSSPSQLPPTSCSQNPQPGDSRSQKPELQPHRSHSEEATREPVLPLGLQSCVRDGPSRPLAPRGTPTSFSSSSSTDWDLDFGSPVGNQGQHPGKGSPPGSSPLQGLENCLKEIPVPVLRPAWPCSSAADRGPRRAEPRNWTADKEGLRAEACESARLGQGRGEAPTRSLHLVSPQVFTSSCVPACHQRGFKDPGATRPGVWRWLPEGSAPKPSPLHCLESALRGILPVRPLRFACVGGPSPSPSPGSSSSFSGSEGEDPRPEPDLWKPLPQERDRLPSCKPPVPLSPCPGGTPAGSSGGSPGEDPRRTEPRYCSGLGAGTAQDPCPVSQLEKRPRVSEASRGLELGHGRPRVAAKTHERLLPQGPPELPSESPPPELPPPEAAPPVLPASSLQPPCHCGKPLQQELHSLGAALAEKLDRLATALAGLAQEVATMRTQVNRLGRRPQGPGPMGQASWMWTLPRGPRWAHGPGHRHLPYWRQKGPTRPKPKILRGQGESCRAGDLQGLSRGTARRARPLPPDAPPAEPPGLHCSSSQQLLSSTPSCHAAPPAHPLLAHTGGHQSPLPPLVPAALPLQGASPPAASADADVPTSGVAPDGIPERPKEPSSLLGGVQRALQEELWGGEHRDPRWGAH

Key:
Assay in all cases: log2 fold change, soluble protein after heating vs DMSO (PISA); higher = thermal stabilisation; K562 lysate, 10 uM; active = over 0.2 and 3.5 SD of the protein, either way, in both replicates (recomputed)
alvocidib = compound: CN1CC[C@H](c2c(O)cc(O)c3c(=O)cc(-c4ccccc4Cl)oc23)[C@H](O)C1 [alvocidib]
Outline: (§1)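 K562 pellets were dounce-homogenised in PBS pH 7.4 containing 1 mM MgCl2, and the crude extract, at 1 mg/mL protein, was exposed to 10 μM compound for 30 min. Aliquots were heated for 3 min across 48°C-58°C, pooled, brought to 0.5% NP-40 at 4°C and spun at 21,000xg for 90 min, with the supernatant taken as soluble protein. TMTpro 16plex LC-MS/MS with equalised channel sums quantified that protein. Values are log-two fold changes in thermal stability relative to solvent controls, taken from duplicates.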

Tubastatin A = compound: CN1CCc2c(c3ccccc3n2Cc2ccc(C(=O)NO)cc2)C1 [Tubastatin A]
Outline: as §1

[1] = compound: CNC(=O)C1=CC=CC=C1NC2=NC(=NC=C2Cl)NC3=C(C=C(C=C3)N4CCOCC4)OC
Outline: as §1

defactinib = compound: CNC(=O)c1ccc(Nc2ncc(C(F)(F)F)c(NCc3nccnc3N(C)S(C)(=O)=O)n2)cc1 [defactinib]
Outline: as §1

[2] = compound: CNc1nc(-c2ccc3c(N)n[nH]c3c2)cc(N2C[C@@H](C(=O)NC3CCCCC3)CC[C@H]2C)n1
Outline: as §1

encorafenib = compound: COC(=O)N[C@@H](C)CNc1nccc(-c2cn(C(C)C)nc2-c2cc(Cl)cc(NS(C)(=O)=O)c2F)n1 [encorafenib]
Outline: as §1

[3] = compound: COC(=O)[C@H](CCSC)NC(=O)C1=C(C=C(C=C1)NC[C@H](CS)N)C2=CC=CC=C2
Outline: as §1

alisertib = compound: COc1cc(Nc2ncc3c(n2)-c2ccc(Cl)cc2C(c2c(F)cccc2OC)=NC3)ccc1C(=O)O [alisertib]
Outline: as §1

[4] = compound: COc1cc2nc(-c3cc(F)ccc3O)nc(N[C@@H]3CNC[C@H]3C(C)(C)O)c2cc1OC
Outline: as §1

gefitinib = compound: COc1cc2ncnc(Nc3ccc(F)c(Cl)c3)c2cc1OCCCN1CCOCC1 [gefitinib]
Outline: as §1

lapatinib = compound: CS(=O)(=O)CCNCc1ccc(-c2ccc3ncnc(Nc4ccc(OCc5cccc(F)c5)c(Cl)c4)c3c2)o1 [lapatinib]
Outline: as §1

pictilisib = compound: CS(=O)(=O)N1CCN(Cc2cc3nc(-c4cccc5[nH]ncc45)nc(N4CCOCC4)c3s2)CC1 [pictilisib]
Outline: as §1

crizotinib = compound: C[C@@H](Oc1cc(-c2cnn(C3CCNCC3)c2)cnc1N)c1c(Cl)ccc(F)c1Cl [crizotinib]
Outline: as §1

[5] = compound: C[C@H](C1=CC=C(C=C1)C(=O)NC2=C3C=CNC3=NC=C2)N
Outline: as §1

duvelisib = compound: C[C@H](Nc1ncnc2nc[nH]c12)c1cc2cccc(Cl)c2c(=O)n1-c1ccccc1 [duvelisib]
Outline: as §1

gandotinib = compound: Cc1cc(Nc2cc(CN3CCOCC3)c3nc(C)c(Cc4ccc(Cl)cc4F)n3n2)n[nH]1 [gandotinib]
Outline: as §1

tozasertib = compound: Cc1cc(Nc2cc(N3CCN(C)CC3)nc(Sc3ccc(NC(=O)C4CC4)cc3)n2)n[nH]1 [tozasertib]
Outline: as §1

doramapimod = compound: Cc1ccc(-n2nc(C(C)(C)C)cc2NC(=O)Nc2ccc(OCCN3CCOCC3)c3ccccc23)cc1 [doramapimod]
Outline: as §1

bafetinib = compound: Cc1ccc(NC(=O)c2ccc(CN3CC[C@H](N(C)C)C3)c(C(F)(F)F)c2)cc1Nc1nccc(-c2cncnc2)n1 [bafetinib]
Outline: as §1

[6] = compound: Cc1cccc(CC(=O)N2CCc3c2ccc(-c2cn(C)c4ncnc(N)c24)c3F)n1
Outline: as §1

Measured: log2 fold change

LAMTOR3 (UniProt Q9UHA4)
inactive: alvocidib -0.003 | Tubastatin A 0.052 | [1] -0.002 | defactinib -0.05 | [2] 0.053 | encorafenib -0.017 | [3] -0.01 | alisertib 0.009 | [4] -0.021 | gefitinib 0.033 | lapatinib -0.017 | pictilisib 0.061 | crizotinib -0.033 | [5] -0.126 | duvelisib 0.023 | gandotinib 0.066 | tozasertib -0.03 | doramapimod 0.018 | bafetinib -0.093 | [6] 0.062

KRTCAP2 isoform 2 (UniProt Q8N6L1)
inactive: alvocidib -0.234 | Tubastatin A 0.016 | [1] -0.027 | defactinib -0.013 | [2] -0.047 | encorafenib -0.043 | [3] -0.126 | alisertib -0.052 | [4] -0.019 | gefitinib -0.115 | lapatinib -0.027 | crizotinib -0.013 | [5] -0.239 | duvelisib 0.006 | gandotinib 0.183 | tozasertib -0.101 | doramapimod 0.025 | [6] 0.077

KDM8 isoform 3 (UniProt Q8N371)
inactive: alvocidib 0.004 | Tubastatin A 0.013 | [1] 0.019 | defactinib 0.038 | [2] 0.121 | encorafenib -0.002 | [3] -0.059 | alisertib -0.007 | [4] 0.011 | gefitinib 0 | lapatinib -0.013 | pictilisib -0.032 | crizotinib -0.022 | [5] -0.04 | duvelisib -0.012 | gandotinib 0.034 | tozasertib -0.021 | doramapimod 0.006 | bafetinib -0.059 | [6] 0.039

KRI1 (UniProt Q8N9T8)
inactive: alvocidib 0.017 | Tubastatin A -0.113 | [1] 0.016 | defactinib 0.019 | [2] -0.012 | encorafenib 0.038 | [3] 0.009 | alisertib 0.042 | gefitinib -0.106 | pictilisib -0.072 | crizotinib -0.057 | [5] 0.011 | duvelisib 0.036 | gandotinib -0.022 | tozasertib 0.014 | doramapimod 0.023 | bafetinib 0.009 | [6] 0.045

KLHL17 (UniProt Q6TDP4)
inactive: alvocidib 0.009 | Tubastatin A 0.008 | [1] 0.165 | encorafenib -0.141 | [3] 0.034 | pictilisib 0.124 | [5] -0.247 | gandotinib -0.004 | tozasertib 0.021 | bafetinib -0.082 | [6] 0.039

KIZ (UniProt Q2M2Z5)
inactive: alvocidib -0.086 | Tubastatin A 0.107 | [1] -0.011 | defactinib -0.086 | [2] 0.08 | encorafenib 0.024 | [3] -0.229 | pictilisib -0.023 | crizotinib 0.014 | [5] -0.01 | duvelisib 0.023 | gandotinib 0.056 | tozasertib 0.061 | doramapimod 0.006 | bafetinib -0.009 | [6] -0.058

KDM5B isoform 2 (UniProt Q9UGL1)
inactive: alvocidib -0.048 | Tubastatin A 0.021 | [1] -0.007 | defactinib 0.08 | [2] 0.307 | encorafenib -0.094 | [3] 0.075 | [4] 0.014 | lapatinib -0.006 | pictilisib -0.041 | crizotinib -0.02 | [5] -0.003 | duvelisib 0 | gandotinib 0.257 | tozasertib 0.13 | doramapimod -0.033 | bafetinib -0.013 | [6] 0.29

KLHL20 (UniProt Q9Y2M5)
inactive: alvocidib -0.006 | Tubastatin A 0.009 | [1] -0.057 | [2] -0.034 | encorafenib 0.083 | [3] -0.041 | [4] -0.007 | lapatinib 0.005 | pictilisib -0.009 | crizotinib -0.029 | [5] -0.039 | duvelisib -0.001 | gandotinib 0.055 | tozasertib -0.025 | doramapimod -0.023 | bafetinib -0.049 | [6] 0.129

Reprinted from the entries so far (4 entries):
KRI1 (UniProt Q8N9T8)
inactive: alvocidib 0.017 | Tubastatin A -0.113 | [1] 0.016 | defactinib 0.019 | [2] -0.012 | encorafenib 0.038 | [3] 0.009 | alisertib 0.042 | gefitinib -0.106 | pictilisib -0.072 | crizotinib -0.057 | [5] 0.011 | duvelisib 0.036 | gandotinib -0.022 | tozasertib 0.014 | doramapimod 0.023 | bafetinib 0.009 | [6] 0.045

KLHL17 (UniProt Q6TDP4)
inactive: alvocidib 0.009 | Tubastatin A 0.008 | [1] 0.165 | encorafenib -0.141 | [3] 0.034 | pictilisib 0.124 | [5] -0.247 | gandotinib -0.004 | tozasertib 0.021 | bafetinib -0.082 | [6] 0.039

KIZ (UniProt Q2M2Z5)
inactive: alvocidib -0.086 | Tubastatin A 0.107 | [1] -0.011 | defactinib -0.086 | [2] 0.08 | encorafenib 0.024 | [3] -0.229 | pictilisib -0.023 | crizotinib 0.014 | [5] -0.01 | duvelisib 0.023 | gandotinib 0.056 | tozasertib 0.061 | doramapimod 0.006 | bafetinib -0.009 | [6] -0.058

KDM5B isoform 2 (UniProt Q9UGL1)
inactive: alvocidib -0.048 | Tubastatin A 0.021 | [1] -0.007 | defactinib 0.08 | [2] 0.307 | encorafenib -0.094 | [3] 0.075 | [4] 0.014 | lapatinib -0.006 | pictilisib -0.041 | crizotinib -0.02 | [5] -0.003 | duvelisib 0 | gandotinib 0.257 | tozasertib 0.13 | doramapimod -0.033 | bafetinib -0.013 | [6] 0.29

Later entries

LAMP2 isoform 2 (UniProt P13473)
inactive: alvocidib 0.133 | Tubastatin A 0.018 | [1] -0.021 | alisertib 0.02 | gefitinib -0.003 | pictilisib 0.032 | crizotinib 0.121 | [5] 0.164 | gandotinib -0.074 | doramapimod -0.06 | bafetinib 0 | [6] -0.19

KDM5A (UniProt P29375)
inactive: alvocidib -0.03 | Tubastatin A -0.173 | [2] 0.152 | crizotinib -0.069 | [5] 0.011 | duvelisib -0.11 | gandotinib -0.015 | doramapimod 0.01 | [6] 0.036

L3MBTL2 (UniProt Q969R5)
inactive: alvocidib -0.221 | [2] -0.285 | encorafenib 0.031 | [3] 0.014 | alisertib -0.037 | gefitinib -0.052 | crizotinib -0.034 | [5] 0.056 | duvelisib 0.123 | gandotinib -0.114 | tozasertib -0.109 | doramapimod -0.062 | [6] 0.184

LAMA2 (UniProt P24043)
inactive: alvocidib -0.152 | Tubastatin A 0.049 | [1] -0.047 | defactinib -0.002 | encorafenib -0.016 | [3] 0.123 | alisertib -0.038 | [4] 0.041 | gefitinib -0.017 | lapatinib 0.016 | pictilisib 0.069 | [5] -0.22 | gandotinib 0.27 | tozasertib -0.021 | bafetinib 0.092 | [6] 0.212

KLHDC10 (UniProt Q6PID8)
inactive: alvocidib -0.061 | Tubastatin A 0.001 | [1] -0.073 | defactinib -0.221 | [2] -0.222 | encorafenib 0.046 | [3] -0.063 | alisertib 0.008 | gefitinib -0.057 | pictilisib -0.079 | crizotinib -0.029 | [5] -0.024 | duvelisib -0.002 | gandotinib 0 | tozasertib -0.1 | doramapimod 0.039 | bafetinib -0.101 | [6] 0.052

KIF1B isoform 3 (UniProt O60333)
inactive: alvocidib -0.069 | Tubastatin A -0.086 | [1] -0.03 | [2] -0.01 | encorafenib -0.142 | [3] 0 | alisertib -0.02 | gefitinib -0.214 | pictilisib 0.059 | crizotinib 0.1 | [5] -0.104 | duvelisib -0.006 | gandotinib 0.264 | tozasertib -0.096 | doramapimod 0.023 | bafetinib -0.22 | [6] 0.343

KIAA0930 isoform 2 (UniProt Q6ICG6)
inactive: alvocidib -0.067 | Tubastatin A 0.077 | defactinib 0.03 | [2] -0.118 | encorafenib -0.089 | [3] -0.032 | alisertib 0.073 | [4] 0.013 | gefitinib -0.063 | lapatinib -0.068 | pictilisib 0.016 | crizotinib -0.067 | [5] -0.121 | duvelisib -0.037 | gandotinib 0.055 | tozasertib -0.015 | doramapimod 0.055 | bafetinib -0.051 | [6] 0.191

KLHL42 (UniProt Q9P2K6)
inactive: alvocidib -0.034 | Tubastatin A 0.023 | [1] 0.015 | [2] -0.094 | alisertib 0.027 | [4] 0.009 | gefitinib -0.031 | lapatinib -0.095 | pictilisib -0.005 | crizotinib 0.08 | [5] 0.073 | duvelisib -0.031 | gandotinib -0.027 | doramapimod -0.109 | bafetinib 0.11 | [6] -0.066

KLHL22 (UniProt Q53GT1)
inactive: alvocidib 0.03 | Tubastatin A 0.02 | [1] -0.061 | defactinib 0.093 | [2] -0.28 | encorafenib 0.068 | [3] 0.088 | [5] 0.065 | duvelisib 0.012 | gandotinib -0.109 | tozasertib -0.07 | [6] 0.031

KRBA1 (UniProt A5PL33)
inactive: alvocidib -0.074 | Tubastatin A -0.263 | [1] -0.104 | defactinib 0.055 | [2] 0.005 | encorafenib 0.163 | [3] 0.035 | [4] 0.062 | lapatinib -0.155 | pictilisib 0.021 | crizotinib -0.104 | [5] 0.089 | duvelisib 0.045 | gandotinib 0.05 | tozasertib -0.161 | doramapimod 0.159 | bafetinib -0.043 | [6] 0.206
